## Assay results

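Genome-wide siRNA knockdown in TC32 Ewing sarcoma cells, comparing luciferase light from an NR0B1-promoter reporter with a CMV-promoter reporter 48 hours after transfection. Each siRNA was applied at 20 nM. A z-score of the log NR0B1-over-CMV signal, less the median of siRNAs with the same seed; more negative means a stronger specific loss of the NR0B1 reporter.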

This is part of the screen; most of the strongest results are not listed here. Sequences are the guide (antisense) strand, without overhang.

siRNA,target gene,seed-corrected z-score
UUUAAGUCACCAUAAGAGG,SRSF5,0.5062
UCCUCGACAGGUUUCCCAC,PPP1R14A,-0.3365
UAUGGGUCCAGUCCCUUCU,COX5B,-1.067
UCAUUGCUUAAUGAUGAUG,LANCL2,0.1005
UUUGUGAGUUCUGAAACAG,SIRPB1,0.08562
UCAGGGAUAAAGAAAAGGG,IL9R,-0.01164
UAUGUACCCGGAAUAACUC,LEF1,0.2272
AUAUGUGAUAGAGGGACUG,ERH,-0.9321
UCGACUUCUACUCUGAUUG,DNAJA2,0.1275
UCAGGCUCCACCUCAUUGC,TARBP2,0.1185
UUUGUCACAGGCACUAAGG,S100A7,-1.673
UCUUCGGAAAAAUUCAUUG,ITGA10,0.1457
UGUUCGAUAAGCCGCUUUC,CUX1,-0.3062
UUUGCUGUAGGUGUGAUCC,ACTL6B,1.173
UGGGAUCAAAUCGCUAAGG,GALNT5,-0.02118
UGUCAACUCAUCUUCACUC,XRCC6,-0.5951
UUUCUGCCCACGCAGUGCU,FOXI2,-0.1626
UUUGGAGACAUUCUAUUAG,HMGN2,-0.8069
UUGGAUUGCACAACUUCUG,ADAM32,0.4856
UACCUGACUCCUGUUGUCC,AQP4,-0.1022
UUAGCCUCAGGACAUAUGC,ASTE1,-0.7804
UUGUUUUCACGUGCGGAUC,TCEB3C,-1.115
UGUGAUUUGGGACAUGGGC,PDE4A,0.2201
UGAGGAAUAACAUCCACUG,RNF128,-0.03289
UUUAGAACUUAGCCCUUUG,TBC1D5,-0.6984
UAUGAUUUACCUUUAGUAU,ZNF705A,1.09
AUAUGUAUCCAUGCAAGCC,OR4K1,-0.01025
UCAUUGACAAGCCCUGCCU,SUMO3,0.284
UUCCAGCAUAUAAUGGUCG,BCAM,-0.9248
UGCAUUAUAUAUACUGUCU,MMP26,-0.102
AAUAGAACUGUCCCAAUAC,NLN,0.1675
UUUGUACUGCCGGUCCUCG,PRMT1,-0.4076
AAUCGAUCUCGAAUCAGCG,NHEJ1,-0.2341
AAUGAUCAUAGUUAGGUUG,OR8K5,-0.3668
UAUCUUCUUAUAUUCUCAU,LOC729461,0.05566
AUUAGUUCCACUACGAGAG,DGKE,-0.4054
UAUCUGACCGGUCAUGCUG,CDADC1,0.809
UAUCGUAUAAUGUGGUUGG,RBL2,0.02299
UAUCGAUAUAUAUUCCAAG,CNIH4,-0.4021
AUCGCUUUAAACCAACAUC,PTK2,-0.3861
UUGGGAAGUUCAGACAAGG,ZNF444,-1.261
AAUUCCUCAACUGCAGCUC,NGFRAP1,0.02333
UAGGUUCCCUGAGUCAACU,OOEP,-0.2612
UAGUAGCCCACAGCAGAGC,SLC31A2,-1.147
AUUGCUGCAACACCGGUUG,RAB5CP2,-0.1945
AUCACGAAUCACGUUUUCC,HIST1H4E,-0.1155
AAUGCAACUAGCUUGCAGG,TMEM198B,-0.2208
AAAGUUGAAAAAGGCAGGG,CYP2F1,1.639
UUGACAUACACGUUGUUCA,SHISA2,0.5866
ACUGUUCUCAACAAUAAUC,C11orf45,1.186
UUUUGUCGAACUGCUUUUG,ALDH1A3,-0.4449
AAUUCUGCAUGAUUCAACU,BMS1P15,-1.183
UAGAUCUCCAACACUAUUC,PLBD1,-0.3719

The first 4 entries again:

siRNA,target gene,seed-corrected z-score
UUUAAGUCACCAUAAGAGG,SRSF5,0.5062
UCCUCGACAGGUUUCCCAC,PPP1R14A,-0.3365
UAUGGGUCCAGUCCCUUCU,COX5B,-1.067
UCAUUGCUUAAUGAUGAUG,LANCL2,0.1005

The results are deposited in PubChem (AID1159506; NCATS, 2015).